Experimental data: PubChem BioAssay AID1259405 (NCATS, 2018)

Assay: 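Mouse-designed siRNAs used to find CHO productivity engineering targets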 (primary screen)
Cells: Chinese hamster CHO-K1 ovary cells with stable secreted eGFP expression
Knock-down reagent: single siRNA against mouse genes, 0.8 pmol siRNA per well (2 µl of 400 nM stock)
Timing: 3 days
Detection: 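Per-well intracellular GFP measured by laser scanning cytometry, plus viability from ATP luminescence, each relative to plate median of non-targeting control wells, in %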
Scale: GFP, % of control: higher = more GFP per well, higher productivity; viability (ATP), % of control: higher = more viable cells (more ATP)
Call rule: 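Called active when intracellular GFP, relative to negative control, is at or above 120%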
In all, the deposit lists about 50,000 reagents; this is a random part of them. About 4,000 of them (8%) count as active. 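Mouse siRNA library applied to hamster cells; one well for each siRNA.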 A number with no mark means an inactive call. Reagents against one gene are numbered here. No sequences are given here.

| target gene | reagent no. | GFP, % of control | viability (ATP), % of control |
| --- | --- | --- | --- |
| 9430015G10Rik (RIKEN cDNA 9430015G10 gene) | 1 | 95.9 | 54.5 |
| 9430015G10Rik (RIKEN cDNA 9430015G10 gene) | 2 | 56.7 | 73.6 |
| 9430015G10Rik (RIKEN cDNA 9430015G10 gene) | 3 | 107 | 83.5 |
| Slitrk5 (SLIT and NTRK-like family, member 5) | 1 | 88.8 | 71.7 |
| Slitrk5 (SLIT and NTRK-like family, member 5) | 2 | 59.1 | 76.5 |
| Slitrk5 (SLIT and NTRK-like family, member 5) | 3 | 51.4 | 47.8 |
| Klra5 (killer cell lectin-like receptor, subfamily A, member 5) | 1 | 67.4 | 75.6 |
| Klra5 (killer cell lectin-like receptor, subfamily A, member 5) | 2 | 86.3 | 69.8 |
| Klra5 (killer cell lectin-like receptor, subfamily A, member 5) | 3 | 99.4 | 95.1 |
| Rb1cc1 (RB1-inducible coiled-coil 1) | 1 | 66.7 | 66.2 |
| Rb1cc1 (RB1-inducible coiled-coil 1) | 2 | 117 | 84.5 |
| Rb1cc1 (RB1-inducible coiled-coil 1) | 3 | 66.2 | 80.9 |
| Trpc5 | 1 | 116 | 130 |
| Trpc5 | 2 | 98.1 | 85.1 |
| Trpc5 | 3 | 121 (active) | 88.9 |
| Vmn1r87 (vomeronasal 1 receptor 87) | 1 | 112 | 75.2 |
| Vmn1r87 (vomeronasal 1 receptor 87) | 2 | 106 | 72.3 |
| Vmn1r87 (vomeronasal 1 receptor 87) | 3 | 92.3 | 98.5 |
| Poc5 (POC5 centriolar protein) | 1 | 77.9 | 91.1 |
| Poc5 (POC5 centriolar protein) | 2 | 66.7 | 79.5 |
| Poc5 (POC5 centriolar protein) | 3 | 33.9 | 15.9 |
| Cxcl9 (C-X-C motif chemokine ligand 9) | 1 | 66.2 | 64.9 |
| Cxcl9 (C-X-C motif chemokine ligand 9) | 2 | 64.4 | 79 |
| Cxcl9 (C-X-C motif chemokine ligand 9) | 3 | 98.2 | 72.2 |
| Efcab9 (EF-hand calcium binding domain 9) | 1 | 89.4 | 120 |
| Efcab9 (EF-hand calcium binding domain 9) | 2 | 64.7 | 74 |
| Efcab9 (EF-hand calcium binding domain 9) | 3 | 81.9 | 63.3 |
| Mgat1 (mannoside acetylglucosaminyltransferase 1) | 1 | 60.5 | 64 |
| Mgat1 (mannoside acetylglucosaminyltransferase 1) | 2 | 130 (active) | 110 |
| Mgat1 (mannoside acetylglucosaminyltransferase 1) | 3 | 100 | 109 |
| Or4c118 (olfactory receptor family 4 subfamily C member 118) | 1 | 67 | 65.6 |
| Or4c118 (olfactory receptor family 4 subfamily C member 118) | 2 | 69.2 | 59.8 |
| Or4c118 (olfactory receptor family 4 subfamily C member 118) | 3 | 53.6 | 80.2 |
| Scai (suppressor of cancer cell invasion) | 1 | 71 | 69.6 |
| Scai (suppressor of cancer cell invasion) | 2 | 22.8 | 24.5 |
| Scai (suppressor of cancer cell invasion) | 3 | 68.2 | 116 |
| Eif4e (eukaryotic translation initiation factor 4E) | 1 | 79.5 | 87.8 |
| Eif4e (eukaryotic translation initiation factor 4E) | 2 | 82.8 | 88.5 |
| Eif4e (eukaryotic translation initiation factor 4E) | 3 | 104 | 86.5 |
| Ndufb2 (NADH:ubiquinone oxidoreductase subunit B2) | 1 | 55.9 | 70.8 |
| Ndufb2 (NADH:ubiquinone oxidoreductase subunit B2) | 2 | 89.2 | 82.7 |
| Ndufb2 (NADH:ubiquinone oxidoreductase subunit B2) | 3 | 57.1 | 56.9 |
| Mrgprd (MAS-related GPR, member D) | 1 | 68.1 | 67.7 |
| Mrgprd (MAS-related GPR, member D) | 2 | 89 | 85.3 |
| Mrgprd (MAS-related GPR, member D) | 3 | 146 (active) | 79 |
| Glod4 (glyoxalase domain containing 4) | 1 | 64.9 | 63.9 |
| Glod4 (glyoxalase domain containing 4) | 2 | 86.5 | 67.7 |
| Glod4 (glyoxalase domain containing 4) | 3 | 69.2 | 82.3 |
| 4921522P10Rik (RIKEN cDNA 4921522P10 gene) | 1 | 75.7 | 79.8 |
| 4921522P10Rik (RIKEN cDNA 4921522P10 gene) | 2 | 41 | 40.5 |
| 4921522P10Rik (RIKEN cDNA 4921522P10 gene) | 3 | 97.1 | 76.9 |
| Ddx50 (DExD box helicase 50) | 1 | 79.3 | 83.4 |
| Ddx50 (DExD box helicase 50) | 2 | 59.7 | 57.9 |
| Ddx50 (DExD box helicase 50) | 3 | 188 (active) | 194 |
| Nxf3 (nuclear RNA export factor 3) | 1 | 81.1 | 83.1 |
| Nxf3 (nuclear RNA export factor 3) | 2 | 69.6 | 94.6 |
| Marchf6 (membrane associated ring-CH-type finger 6) | 1 | 104 | 115 |
| Marchf6 (membrane associated ring-CH-type finger 6) | 2 | 79.6 | 78.8 |
| Marchf6 (membrane associated ring-CH-type finger 6) | 3 | 130 (active) | 104 |

Part of the list above, reduced to “viability (ATP), % of control”:
Ndufb2 (NADH:ubiquinone oxidoreductase subunit B2) #2: 82.7
Ndufb2 (NADH:ubiquinone oxidoreductase subunit B2) #3: 56.9
Mrgprd (MAS-related GPR, member D) #1: 67.7
Mrgprd (MAS-related GPR, member D) #2: 85.3
Mrgprd (MAS-related GPR, member D) #3: 79 (active)
Glod4 (glyoxalase domain containing 4) #1: 63.9
Glod4 (glyoxalase domain containing 4) #2: 67.7
Glod4 (glyoxalase domain containing 4) #3: 82.3
4921522P10Rik (RIKEN cDNA 4921522P10 gene) #1: 79.8
